Reference: PubChem BioAssay AID1347075 (National Center for Advancing Translational Sciences (NCATS), 2019)
Out of some 400,000 compounds screened, about 5,500 (1.4%) were called active. Inconclusive results, whose numbers are uncertain, are shown with a selection of clear calls. The call rests on the fitted dose curve; in most records, active means well fitted cell-killing curve with a large enough effect; inconclusive means small, poorly fitted or top-dose-only effect, or effect the other way; inactive means flat fitted curve, though single readings scatter. Where the call is inconclusive, the potency comes from a doubtful curve fit.

Assay: qHTS assay for MDR1-selective chemotherapeutics: Primary screen using the parental adenocarcinoma cell KB-3-1; further: nearly all actives have a fitted effect of over 60% in size
Conditions: KB-3-1 viability, CellTiter-Glo ATP luminescence, 72 h; activity change, negative = cytotoxic: at 46.1 µM (top of the series)
Outline: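 Parental KB-3-1 viability, qHTS format: 72 h compound exposure, 37 °C; CellTiter-Glo; media-only wells and DMSO plates as controls; concentration-effect fits on corrected data.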
On the % scale 0 is the no-effect control and ±100 the full control effect; potency means the concentration at half of the fitted maximal effect.

Row | Structure (SMILES) | Potency | activity change, negative = cytotoxic
1 | COc1ccc(C)cc1NC(=O)C(c1ccccc1)N1CCN(CC(=O)N2CCOCC2)CC1 (centres undefined) | inconclusive: 9.2 µM [rising, partial curve, poor fit] | 
2 | CCN(CC)c1ccc(/C=N\NC(=O)c2cccc3cc[nH]c23)cc1 | active: 23.1 µM | 
3 | Cc1ccc(/C=C(\NC(=O)c2ccc(C)cc2)c2nc(=S)[nH][nH]2)cc1 | inconclusive: 29.1 µM [cytotoxic, single point] | 
4 | Cc1ccccc1NS(=O)(=O)c1ccc(S(=O)(=O)N2CCCC2)cc1 |  | inactive: -3.2%
5 | CCc1nc2ccccc2n2c(-c3ccccc3)c3c(=O)n(C)c(=O)n(C)c3c12 | inconclusive: 29.1 µM [cytotoxic, single point] | 
6 | COC(=O)c1cccc(NC(=O)c2nn(C(C)C)c(=O)c3ccccc23)c1 |  | inactive: -1.08%
7 | Cc1ccc(S(=O)(=O)Nc2ccc(NC(=O)Nc3cccc(C(F)(F)F)c3)cc2)cc1 | inconclusive: 29.1 µM [cytotoxic, single point] | 
8 | Cn1cc(/C=C/c2cc[n+](C)cc2)c2cc(Cl)ccc21 | active: 0.92 µM | 
9 | COc1ccccc1CNc1nc(NCc2ccccc2F)c2sccc2n1 | inconclusive: 29.1 µM [cytotoxic, single point] | 
10 | CC1=CC(=C2C(=O)c3ccccc3C2=O)C=C(C)O1 | inconclusive: 11.6 µM [rising, partial curve] | 
11 | Cc1sc2nc(CSc3ccc([N+](=O)[O-])c(C(F)(F)F)c3)[nH]c(=O)c2c1C | inconclusive: 32.6 µM [cytotoxic, single point] | 
12 | CC1(C(=O)NCC2CCOCC2)Cc2c(-c3cccc(C(N)=O)c3)ccnc2O1 (centres undefined) | inconclusive: 29.1 µM [cytotoxic, single point] | 
13 | O=C(/C=C/c1cn(CC(O)CN2CCCCC2)c2ccccc12)c1ccccc1 (centres undefined) |  | inactive: -24.8%
14 | Cc1ccc(C(=O)CCS(=O)(=O)c2ccc(Br)cc2)cc1 |  | inactive: 12.6%
15 | CN(C)c1ccc(C2C3=C(CCCC3=O)OC3=C2C(=O)CCC3)cc1 |  | inactive: -11%
16 | CC(C)C1C(=O)N(Cc2cn(CC3CCCCC3)nn2)CCS(=O)(=O)N1Cc1ccc(-c2ccc(Cl)nc2)cc1 (centres undefined) | inconclusive: 20.6 µM [cytotoxic, partial curve, poor fit] | 
17 | O=S1(=O)CC(N2CCN(Cc3ccccc3F)CC2)CN1Cc1cn(Cc2ccc(C(F)(F)F)cc2)nn1 (centres undefined) | inconclusive: 13 µM [cytotoxic, partial curve] | 
18 | O=[N+]([O-])c1ccc(NS(=O)(=O)c2ccccc2)c(Cl)c1 | active: 16.4 µM | 
19 | Cc1cc(C)n2nc(CNC(=O)c3ccccc3Cl)nc2n1 |  | inactive: -2.93%

Ordered by SMILES length (ascending): part of the list above
Row | Structure (SMILES) | Potency | activity change, negative = cytotoxic
18 | O=[N+]([O-])c1ccc(NS(=O)(=O)c2ccccc2)c(Cl)c1 | active: 16.4 µM | 
6 | COC(=O)c1cccc(NC(=O)c2nn(C(C)C)c(=O)c3ccccc23)c1 |  | inactive: -1.08%
1 | COc1ccc(C)cc1NC(=O)C(c1ccccc1)N1CCN(CC(=O)N2CCOCC2)CC1 (centres undefined) | inconclusive: 9.2 µM [rising, partial curve, poor fit] | 
